Results: the supplement of paper PMC12067093, “Discovery and optimisation of a covalent ligand for TRIM25 and its application to targeted protein ubiquitination” (Chemical Science, 2025)
This is one part of the list.

Sequences of proteins named here, by UniProt entry; tags and fusion partners are left off. A change or cut given only in a name is not applied to a line headed by its entry.
UniProt P62942, whole entry, looked up: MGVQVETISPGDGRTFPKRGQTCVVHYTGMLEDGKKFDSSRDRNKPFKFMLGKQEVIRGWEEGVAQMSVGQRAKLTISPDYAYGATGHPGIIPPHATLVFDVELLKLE
UniProt Q96I24: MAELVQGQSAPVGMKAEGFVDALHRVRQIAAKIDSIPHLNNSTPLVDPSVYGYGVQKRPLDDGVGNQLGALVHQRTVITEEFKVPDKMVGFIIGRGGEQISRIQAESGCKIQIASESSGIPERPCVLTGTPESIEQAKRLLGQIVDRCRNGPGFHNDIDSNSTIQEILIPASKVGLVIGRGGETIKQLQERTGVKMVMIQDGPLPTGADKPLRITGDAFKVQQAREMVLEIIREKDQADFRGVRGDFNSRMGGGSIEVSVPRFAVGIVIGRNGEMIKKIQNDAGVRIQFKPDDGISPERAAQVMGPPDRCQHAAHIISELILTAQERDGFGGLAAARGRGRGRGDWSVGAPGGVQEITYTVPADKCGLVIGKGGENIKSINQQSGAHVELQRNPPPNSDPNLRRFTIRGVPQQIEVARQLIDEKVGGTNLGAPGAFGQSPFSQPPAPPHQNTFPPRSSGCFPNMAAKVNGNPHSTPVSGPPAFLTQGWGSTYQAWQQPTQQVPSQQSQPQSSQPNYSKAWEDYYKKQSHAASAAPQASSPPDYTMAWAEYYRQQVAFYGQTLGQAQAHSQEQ
UniProt Q13045: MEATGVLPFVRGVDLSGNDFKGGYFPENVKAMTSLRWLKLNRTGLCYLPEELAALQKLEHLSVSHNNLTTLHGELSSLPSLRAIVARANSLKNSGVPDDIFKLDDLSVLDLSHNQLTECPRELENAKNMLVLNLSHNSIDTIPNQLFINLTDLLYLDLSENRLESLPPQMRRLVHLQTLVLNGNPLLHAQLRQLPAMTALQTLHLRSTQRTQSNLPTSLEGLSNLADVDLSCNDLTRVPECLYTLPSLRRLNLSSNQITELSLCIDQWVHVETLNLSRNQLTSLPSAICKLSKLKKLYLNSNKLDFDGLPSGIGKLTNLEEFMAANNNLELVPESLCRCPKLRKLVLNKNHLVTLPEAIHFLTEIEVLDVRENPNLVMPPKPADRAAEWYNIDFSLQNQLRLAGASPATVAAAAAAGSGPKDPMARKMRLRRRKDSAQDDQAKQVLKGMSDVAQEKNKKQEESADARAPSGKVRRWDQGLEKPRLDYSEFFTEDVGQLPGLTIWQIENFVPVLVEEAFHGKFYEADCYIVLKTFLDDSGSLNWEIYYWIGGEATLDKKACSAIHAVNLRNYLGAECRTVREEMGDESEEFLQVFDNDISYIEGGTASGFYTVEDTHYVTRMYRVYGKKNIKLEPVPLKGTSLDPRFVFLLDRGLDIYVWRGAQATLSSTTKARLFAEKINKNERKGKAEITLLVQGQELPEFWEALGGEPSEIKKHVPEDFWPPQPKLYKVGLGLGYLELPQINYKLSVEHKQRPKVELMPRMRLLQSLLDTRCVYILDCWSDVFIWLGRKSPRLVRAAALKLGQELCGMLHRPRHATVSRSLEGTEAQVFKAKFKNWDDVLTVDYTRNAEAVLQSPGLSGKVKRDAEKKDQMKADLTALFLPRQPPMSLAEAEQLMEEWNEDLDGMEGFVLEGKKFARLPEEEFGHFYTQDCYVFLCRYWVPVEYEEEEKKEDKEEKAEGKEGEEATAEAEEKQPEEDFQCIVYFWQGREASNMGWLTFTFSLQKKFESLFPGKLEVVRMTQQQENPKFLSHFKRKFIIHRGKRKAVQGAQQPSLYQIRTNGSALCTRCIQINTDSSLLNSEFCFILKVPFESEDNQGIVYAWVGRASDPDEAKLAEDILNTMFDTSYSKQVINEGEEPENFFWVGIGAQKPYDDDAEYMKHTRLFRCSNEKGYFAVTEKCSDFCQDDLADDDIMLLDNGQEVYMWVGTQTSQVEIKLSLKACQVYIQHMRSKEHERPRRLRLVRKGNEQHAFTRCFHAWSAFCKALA
UniProt Q13642: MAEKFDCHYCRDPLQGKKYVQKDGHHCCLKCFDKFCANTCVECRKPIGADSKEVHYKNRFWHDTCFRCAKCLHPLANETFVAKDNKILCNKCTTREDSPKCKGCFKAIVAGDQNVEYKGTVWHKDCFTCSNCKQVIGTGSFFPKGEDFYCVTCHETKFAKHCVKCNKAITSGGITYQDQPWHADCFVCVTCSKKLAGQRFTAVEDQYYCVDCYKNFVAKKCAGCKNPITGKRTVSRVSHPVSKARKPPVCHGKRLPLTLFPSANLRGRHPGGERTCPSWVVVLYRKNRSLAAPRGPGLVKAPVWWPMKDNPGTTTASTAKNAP
UniProt Q53EP0: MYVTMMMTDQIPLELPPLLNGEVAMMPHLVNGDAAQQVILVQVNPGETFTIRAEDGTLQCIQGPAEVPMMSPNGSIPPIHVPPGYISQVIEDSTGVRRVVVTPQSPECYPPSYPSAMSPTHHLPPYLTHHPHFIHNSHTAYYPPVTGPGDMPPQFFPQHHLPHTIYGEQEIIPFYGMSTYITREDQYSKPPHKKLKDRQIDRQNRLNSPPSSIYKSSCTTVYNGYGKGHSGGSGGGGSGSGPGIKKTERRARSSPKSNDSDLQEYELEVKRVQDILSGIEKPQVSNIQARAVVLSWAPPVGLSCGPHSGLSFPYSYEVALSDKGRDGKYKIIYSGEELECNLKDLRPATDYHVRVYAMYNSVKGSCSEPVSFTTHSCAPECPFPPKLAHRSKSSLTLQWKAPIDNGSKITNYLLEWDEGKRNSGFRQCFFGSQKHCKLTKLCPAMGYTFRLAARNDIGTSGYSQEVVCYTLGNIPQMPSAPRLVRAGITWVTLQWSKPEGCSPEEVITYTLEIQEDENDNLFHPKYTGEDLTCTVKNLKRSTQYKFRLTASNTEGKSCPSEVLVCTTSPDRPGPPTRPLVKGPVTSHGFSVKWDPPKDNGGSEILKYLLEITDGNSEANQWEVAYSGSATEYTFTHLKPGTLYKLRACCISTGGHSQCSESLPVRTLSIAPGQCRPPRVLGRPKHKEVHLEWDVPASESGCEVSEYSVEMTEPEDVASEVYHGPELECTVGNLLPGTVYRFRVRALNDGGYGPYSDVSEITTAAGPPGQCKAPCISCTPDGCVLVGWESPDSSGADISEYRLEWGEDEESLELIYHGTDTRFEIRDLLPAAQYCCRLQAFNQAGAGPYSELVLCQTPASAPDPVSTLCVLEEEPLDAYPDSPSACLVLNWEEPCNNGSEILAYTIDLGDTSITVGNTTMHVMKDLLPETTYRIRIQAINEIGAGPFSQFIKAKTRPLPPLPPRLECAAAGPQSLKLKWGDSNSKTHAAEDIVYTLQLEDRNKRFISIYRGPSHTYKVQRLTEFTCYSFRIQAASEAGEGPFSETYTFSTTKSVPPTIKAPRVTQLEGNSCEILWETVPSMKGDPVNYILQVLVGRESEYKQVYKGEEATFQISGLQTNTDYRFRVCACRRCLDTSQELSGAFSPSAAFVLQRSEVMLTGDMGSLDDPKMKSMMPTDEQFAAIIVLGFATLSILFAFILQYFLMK
UniProt Q9Y613: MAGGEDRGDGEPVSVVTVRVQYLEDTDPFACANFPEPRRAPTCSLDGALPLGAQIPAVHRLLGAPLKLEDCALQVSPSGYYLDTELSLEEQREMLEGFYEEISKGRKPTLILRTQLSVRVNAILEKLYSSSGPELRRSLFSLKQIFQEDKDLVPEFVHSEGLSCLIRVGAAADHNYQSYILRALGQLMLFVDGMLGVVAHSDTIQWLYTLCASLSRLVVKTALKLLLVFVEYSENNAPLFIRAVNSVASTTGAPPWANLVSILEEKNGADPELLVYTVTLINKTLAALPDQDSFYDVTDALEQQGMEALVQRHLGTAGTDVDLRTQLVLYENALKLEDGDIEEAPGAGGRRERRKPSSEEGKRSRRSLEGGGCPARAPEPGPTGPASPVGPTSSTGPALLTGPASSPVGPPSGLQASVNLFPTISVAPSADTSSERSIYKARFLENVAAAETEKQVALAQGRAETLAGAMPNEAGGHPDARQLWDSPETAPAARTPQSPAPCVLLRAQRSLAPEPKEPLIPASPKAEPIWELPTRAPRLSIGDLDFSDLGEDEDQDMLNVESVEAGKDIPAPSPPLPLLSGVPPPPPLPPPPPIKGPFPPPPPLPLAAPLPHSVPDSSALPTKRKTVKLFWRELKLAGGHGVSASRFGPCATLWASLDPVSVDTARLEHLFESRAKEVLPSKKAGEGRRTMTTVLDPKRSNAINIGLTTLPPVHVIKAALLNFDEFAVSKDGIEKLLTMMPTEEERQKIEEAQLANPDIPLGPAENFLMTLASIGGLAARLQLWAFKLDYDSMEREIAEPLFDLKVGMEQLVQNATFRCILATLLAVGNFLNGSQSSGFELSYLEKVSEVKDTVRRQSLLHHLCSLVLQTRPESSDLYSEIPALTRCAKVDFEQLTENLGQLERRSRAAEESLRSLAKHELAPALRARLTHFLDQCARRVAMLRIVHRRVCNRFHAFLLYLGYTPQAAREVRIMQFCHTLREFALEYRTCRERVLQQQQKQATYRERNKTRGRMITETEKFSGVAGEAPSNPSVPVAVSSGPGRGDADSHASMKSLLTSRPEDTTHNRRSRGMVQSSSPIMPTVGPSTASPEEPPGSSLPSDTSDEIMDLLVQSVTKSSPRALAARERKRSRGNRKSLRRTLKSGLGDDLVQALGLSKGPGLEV
UniProt P26885: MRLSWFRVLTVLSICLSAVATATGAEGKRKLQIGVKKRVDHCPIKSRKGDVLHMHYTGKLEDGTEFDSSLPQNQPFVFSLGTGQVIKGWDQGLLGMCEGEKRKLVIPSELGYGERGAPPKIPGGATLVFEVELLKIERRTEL
UniProt O14976: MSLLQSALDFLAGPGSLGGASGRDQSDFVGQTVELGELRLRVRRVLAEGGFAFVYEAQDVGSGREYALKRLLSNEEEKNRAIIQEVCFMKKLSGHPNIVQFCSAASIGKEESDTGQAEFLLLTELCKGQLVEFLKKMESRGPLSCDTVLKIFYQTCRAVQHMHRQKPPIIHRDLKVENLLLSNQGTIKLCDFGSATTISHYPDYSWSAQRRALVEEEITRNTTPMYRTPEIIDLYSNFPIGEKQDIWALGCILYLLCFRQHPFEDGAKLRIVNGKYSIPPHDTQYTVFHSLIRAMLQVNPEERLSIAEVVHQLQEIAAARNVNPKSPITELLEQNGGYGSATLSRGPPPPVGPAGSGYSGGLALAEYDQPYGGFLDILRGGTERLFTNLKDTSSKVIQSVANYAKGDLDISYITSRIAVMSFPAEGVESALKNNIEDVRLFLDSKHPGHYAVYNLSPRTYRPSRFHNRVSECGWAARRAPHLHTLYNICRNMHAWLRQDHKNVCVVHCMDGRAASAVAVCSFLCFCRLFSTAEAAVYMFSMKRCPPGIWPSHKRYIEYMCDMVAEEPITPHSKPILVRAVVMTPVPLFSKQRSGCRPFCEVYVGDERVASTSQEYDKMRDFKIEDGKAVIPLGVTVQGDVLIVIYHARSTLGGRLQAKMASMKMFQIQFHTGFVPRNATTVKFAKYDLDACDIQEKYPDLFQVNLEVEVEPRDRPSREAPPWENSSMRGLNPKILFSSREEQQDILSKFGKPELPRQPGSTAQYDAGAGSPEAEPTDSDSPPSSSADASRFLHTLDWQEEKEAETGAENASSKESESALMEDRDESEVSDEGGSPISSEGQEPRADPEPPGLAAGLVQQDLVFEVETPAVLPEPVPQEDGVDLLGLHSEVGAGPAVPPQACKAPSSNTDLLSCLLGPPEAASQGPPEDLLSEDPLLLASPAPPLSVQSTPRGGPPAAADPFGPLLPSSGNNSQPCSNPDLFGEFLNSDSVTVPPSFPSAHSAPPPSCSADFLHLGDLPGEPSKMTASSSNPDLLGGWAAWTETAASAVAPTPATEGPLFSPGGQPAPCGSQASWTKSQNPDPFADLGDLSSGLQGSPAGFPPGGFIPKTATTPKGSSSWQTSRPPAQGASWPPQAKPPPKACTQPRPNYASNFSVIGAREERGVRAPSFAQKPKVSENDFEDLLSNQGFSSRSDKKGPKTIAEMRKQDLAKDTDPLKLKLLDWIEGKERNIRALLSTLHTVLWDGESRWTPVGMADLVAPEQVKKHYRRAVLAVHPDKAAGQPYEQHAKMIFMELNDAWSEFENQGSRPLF
UniProt Q06546: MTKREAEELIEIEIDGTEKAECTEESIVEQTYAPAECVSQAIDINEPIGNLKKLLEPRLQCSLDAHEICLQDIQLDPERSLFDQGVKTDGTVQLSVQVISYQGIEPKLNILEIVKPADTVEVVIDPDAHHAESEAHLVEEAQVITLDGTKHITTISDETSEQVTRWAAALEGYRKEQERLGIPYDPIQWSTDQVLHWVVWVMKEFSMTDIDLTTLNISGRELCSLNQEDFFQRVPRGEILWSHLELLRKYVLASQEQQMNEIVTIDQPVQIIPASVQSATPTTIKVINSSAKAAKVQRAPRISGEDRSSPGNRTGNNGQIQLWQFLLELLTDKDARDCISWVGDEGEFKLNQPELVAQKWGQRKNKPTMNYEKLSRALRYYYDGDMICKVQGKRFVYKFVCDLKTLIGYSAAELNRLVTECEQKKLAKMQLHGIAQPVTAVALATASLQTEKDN

Compound: Cc1cc(ccc1-c1ccccc1)C(=O)N1CCCN(CC1)C(=O)CCl [compound 10]
Assay: probe-labelled cysteine peptide fold change vs DMSO (competition) (log2 fold change); higher = less target engagement (more negative = stronger competition)
Conditions: THP-1, incubation time: 4 h
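Also: competitive profiling in live THP-1 cells: cysteine peptides tagged with an iodoacetamide desthiobiotin (IA-DTB) probe, intensity after compound treatment relative to DMSO-treated cells.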

Target | probe-labelled cysteine peptide fold change (10 µM) | probe-labelled cysteine peptide fold change (50 µM)
FLNB_O75369_622_EPGEYAVHIMCDDEDIK (UniProt O75369) | -0.211 | 0.0989
FYCO1_Q9BQS8_882_CSSEEAQLEHAELQEQLHR (UniProt Q9BQS8) | 0.152 | -0.112
FRMD8_Q9BZ67_206_EKLDSFLPAHLCK (UniProt Q9BZ67) | -0.331 | -0.964
FKBP1A_P62942_23_RGQTCVVHYTGMLEDGK (UniProt P62942) | 0.165 | -0.0845
FLNB_O75369_2333_VHSPSGAVEECHVSELEPDK (UniProt O75369) | -0.0699 | 0.064
FUBP3_Q96I24_310_CQHAAHIISELILTAQER (UniProt Q96I24) | -0.0171 | -0.0499
FUT4_P22083_211_DSAPRPPPDCR (UniProt P22083) | -0.0442 | 0.387
FZD6_O60353_123_WPEELECDR (UniProt O60353) | -0.108 | 0.0877
FLII_Q13045_576_NYLGAECR (UniProt Q13045) | -0.0189 | 0.0603
FOXK1_P85037_665_VCEVGPK (UniProt P85037) | -0.343 | -0.249
FHL1_Q13642_7+10_FDCHYCR (UniProt Q13642) | -0.0387 | -0.34
FN1_P02751_141_CHEGGQSYK (UniProt P02751) | -0.311 | -0.66
FLII_Q13045_933+938_LPEEEFGHFYTQDCYVFLCR (UniProt Q13045) | 0.0227 | -0.157
FNDC3B_Q53EP0_966_LECAAAGPQSLK (UniProt Q53EP0) | -0.104 | -0.0104
FNDC3B_Q53EP0_674_TLSIAPGQCRPPR (UniProt Q53EP0) | -0.0164 | -0.0458
FUBP3_Q96I24_109_IQAESGCK (UniProt Q96I24) | 0.37 | 0.0876
FRRS1_Q6ZNA5_107_NAEDLNGPPIGSFTLIDSEVSQLLTCEDIQGSAVSHR (UniProt Q6ZNA5) | 0.554 | 0.95
FIG4_Q92562_652_HLPLPYDEVICAVNLK (UniProt Q92562) | 0.25 | 0.467
GALK1_P51570_243_RQCEEVAR (UniProt P51570) | -0.154 | -0.0906
FHOD1_Q9Y613_43_RAPTCSLDGALPLGAQIPAVHR (UniProt Q9Y613) | -0.3 | -0.0577
FXR1_P51114_129_CTVDVPEDLR (UniProt P51114) | 0.0929 | 0.0383
FHL1_Q13642_150_GEDFYCVTCHETK (UniProt Q13642) | 0.107 | -0.0472

Target | probe-labelled cysteine peptide fold change (10 µM) | probe-labelled cysteine peptide fold change (50 µM)
G6PD_P11413_158_NIHESCMSQIGWNR (UniProt P11413) | 0.148 | -0.082
FRYL_O94915_1575_VMEHNQGEPLPFPPAGGCWSPLVDYVPETSSPGLPLHR (UniProt O94915) | 0.235 | 0.578
FKBP8_Q14318_195_SPYIPPHAALCLEVTLK (UniProt Q14318) | 0.38 | 0.898
FKBP2_P26885_42_VDHCPIK (UniProt P26885) | -0.117 | -0.437
FMNL1_O95466_69_KWELICDQER (UniProt O95466) | 0.058 | -0.087
FRYL_O94915_2160_DCSNWINVVCR (UniProt O94915) | -0.179 | 0.246
FUT8_Q9BYC5_212_KLVCNINK (UniProt Q9BYC5) | -0.233 | -0.249
GAK_O14976_472_VSECGWAAR (UniProt O14976) | -0.232 | -0.0933
FLII_Q13045_1265_CFHAWSAFCK (UniProt Q13045) | 0.0194 | 0.159
FHOD1_Q9Y613_373_SLEGGGCPAR (UniProt Q9Y613) | -0.139 | 0.0101
FOXRED1_Q96CU9_239_KVQSLGVLFCQGEVTR (UniProt Q96CU9) | -0.0647 | 0.122
FLNB_O75369_991_VVPCLVTPVTGR (UniProt O75369) | 0.0447 | 0.179
FKBP9_O95302_47_FVPDECPR (UniProt O95302) | -0.137 | -0.0897
FPGS_Q05932_315_SNAALALQLAHCWLQR (UniProt Q05932) | 0.109 | -0.365
GAK_O14976_599_SGCRPFCEVYVGDER (UniProt O14976) | -0.133 | -0.425
FLAD1_Q8NFF5_236_LHYGTDPCTGQPFR (UniProt Q8NFF5) | -0.154 | -0.0755
FLNB_O75369_2115_APSVATVGSICDLNLK (UniProt O75369) | 0.00636 | -0.0153
GABPA_Q06546_61+69_LQCSLDAHEICLQDIQLDPER (UniProt Q06546) | 0.275 | -0.128
FKBP8_Q14318_274_CLNNLAASQLK (UniProt Q14318) | 0.0653 | -0.0462
FUS_P35637_444_NECNQCK (UniProt P35637) | 0.241 | 0.122
GABPA_Q06546_338_DCISWVGDEGEFK (UniProt Q06546) | 0.0643 | 0.0327
